Measured values from the supplement of paper PMC12067093, “Discovery and optimisation of a covalent ligand for TRIM25 and its application to targeted protein ubiquitination” (Chemical Science, 2025).
Some of the results follow.

The chains behind the UniProt entries cited, without tags or fusion partners. Where a name states a change or a piece, a line headed by the entry shows the natural chain unless it says otherwise.
UniProt O15160, whole entry, looked up: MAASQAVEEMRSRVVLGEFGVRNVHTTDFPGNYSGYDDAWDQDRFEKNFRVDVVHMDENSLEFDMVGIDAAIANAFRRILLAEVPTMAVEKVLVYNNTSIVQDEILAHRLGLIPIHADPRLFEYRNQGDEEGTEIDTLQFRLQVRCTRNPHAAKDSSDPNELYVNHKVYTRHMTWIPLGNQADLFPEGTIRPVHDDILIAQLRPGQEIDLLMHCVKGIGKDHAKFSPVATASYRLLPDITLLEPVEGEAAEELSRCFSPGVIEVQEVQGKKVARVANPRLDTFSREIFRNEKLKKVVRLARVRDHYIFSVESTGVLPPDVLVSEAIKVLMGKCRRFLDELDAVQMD
UniProt P28340: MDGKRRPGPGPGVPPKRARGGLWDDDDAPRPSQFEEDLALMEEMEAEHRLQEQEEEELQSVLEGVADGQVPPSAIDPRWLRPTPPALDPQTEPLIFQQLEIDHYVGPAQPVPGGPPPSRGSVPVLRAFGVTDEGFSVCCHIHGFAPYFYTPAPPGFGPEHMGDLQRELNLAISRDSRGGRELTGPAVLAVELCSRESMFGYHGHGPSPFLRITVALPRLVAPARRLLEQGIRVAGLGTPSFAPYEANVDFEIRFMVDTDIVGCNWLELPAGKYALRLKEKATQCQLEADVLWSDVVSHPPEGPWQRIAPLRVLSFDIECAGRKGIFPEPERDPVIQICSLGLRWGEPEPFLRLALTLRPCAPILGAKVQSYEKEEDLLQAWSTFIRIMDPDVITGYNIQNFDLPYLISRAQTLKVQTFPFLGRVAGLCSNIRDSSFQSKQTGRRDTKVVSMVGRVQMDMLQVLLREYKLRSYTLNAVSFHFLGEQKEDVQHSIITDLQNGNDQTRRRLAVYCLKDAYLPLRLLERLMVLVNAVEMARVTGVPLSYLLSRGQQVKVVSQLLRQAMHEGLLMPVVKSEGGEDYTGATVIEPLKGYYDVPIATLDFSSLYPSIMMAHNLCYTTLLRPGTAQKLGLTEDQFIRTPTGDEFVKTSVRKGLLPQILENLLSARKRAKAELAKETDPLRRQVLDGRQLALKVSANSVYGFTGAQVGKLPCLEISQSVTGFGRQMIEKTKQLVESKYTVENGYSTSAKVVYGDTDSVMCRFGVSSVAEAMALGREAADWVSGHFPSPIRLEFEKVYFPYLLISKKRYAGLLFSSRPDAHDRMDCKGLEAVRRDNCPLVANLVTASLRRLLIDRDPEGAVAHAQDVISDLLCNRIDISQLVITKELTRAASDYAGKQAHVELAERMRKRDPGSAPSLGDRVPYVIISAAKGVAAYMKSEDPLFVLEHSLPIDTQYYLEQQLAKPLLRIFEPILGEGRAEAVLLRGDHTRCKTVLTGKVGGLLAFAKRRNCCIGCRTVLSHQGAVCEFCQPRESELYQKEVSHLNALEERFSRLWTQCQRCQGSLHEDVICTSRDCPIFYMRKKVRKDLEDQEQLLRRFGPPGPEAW
UniProt P0CAP2, whole entry, looked up: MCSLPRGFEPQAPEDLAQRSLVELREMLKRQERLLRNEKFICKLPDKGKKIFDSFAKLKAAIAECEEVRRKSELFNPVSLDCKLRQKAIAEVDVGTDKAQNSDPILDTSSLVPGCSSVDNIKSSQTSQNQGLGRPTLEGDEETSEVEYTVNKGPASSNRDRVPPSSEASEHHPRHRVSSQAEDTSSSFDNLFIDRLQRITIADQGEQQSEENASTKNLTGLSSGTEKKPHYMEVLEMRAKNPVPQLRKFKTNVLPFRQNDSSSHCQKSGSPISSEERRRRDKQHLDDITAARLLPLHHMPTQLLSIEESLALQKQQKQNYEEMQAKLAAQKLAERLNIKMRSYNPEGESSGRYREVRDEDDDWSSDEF
UniProt P09884: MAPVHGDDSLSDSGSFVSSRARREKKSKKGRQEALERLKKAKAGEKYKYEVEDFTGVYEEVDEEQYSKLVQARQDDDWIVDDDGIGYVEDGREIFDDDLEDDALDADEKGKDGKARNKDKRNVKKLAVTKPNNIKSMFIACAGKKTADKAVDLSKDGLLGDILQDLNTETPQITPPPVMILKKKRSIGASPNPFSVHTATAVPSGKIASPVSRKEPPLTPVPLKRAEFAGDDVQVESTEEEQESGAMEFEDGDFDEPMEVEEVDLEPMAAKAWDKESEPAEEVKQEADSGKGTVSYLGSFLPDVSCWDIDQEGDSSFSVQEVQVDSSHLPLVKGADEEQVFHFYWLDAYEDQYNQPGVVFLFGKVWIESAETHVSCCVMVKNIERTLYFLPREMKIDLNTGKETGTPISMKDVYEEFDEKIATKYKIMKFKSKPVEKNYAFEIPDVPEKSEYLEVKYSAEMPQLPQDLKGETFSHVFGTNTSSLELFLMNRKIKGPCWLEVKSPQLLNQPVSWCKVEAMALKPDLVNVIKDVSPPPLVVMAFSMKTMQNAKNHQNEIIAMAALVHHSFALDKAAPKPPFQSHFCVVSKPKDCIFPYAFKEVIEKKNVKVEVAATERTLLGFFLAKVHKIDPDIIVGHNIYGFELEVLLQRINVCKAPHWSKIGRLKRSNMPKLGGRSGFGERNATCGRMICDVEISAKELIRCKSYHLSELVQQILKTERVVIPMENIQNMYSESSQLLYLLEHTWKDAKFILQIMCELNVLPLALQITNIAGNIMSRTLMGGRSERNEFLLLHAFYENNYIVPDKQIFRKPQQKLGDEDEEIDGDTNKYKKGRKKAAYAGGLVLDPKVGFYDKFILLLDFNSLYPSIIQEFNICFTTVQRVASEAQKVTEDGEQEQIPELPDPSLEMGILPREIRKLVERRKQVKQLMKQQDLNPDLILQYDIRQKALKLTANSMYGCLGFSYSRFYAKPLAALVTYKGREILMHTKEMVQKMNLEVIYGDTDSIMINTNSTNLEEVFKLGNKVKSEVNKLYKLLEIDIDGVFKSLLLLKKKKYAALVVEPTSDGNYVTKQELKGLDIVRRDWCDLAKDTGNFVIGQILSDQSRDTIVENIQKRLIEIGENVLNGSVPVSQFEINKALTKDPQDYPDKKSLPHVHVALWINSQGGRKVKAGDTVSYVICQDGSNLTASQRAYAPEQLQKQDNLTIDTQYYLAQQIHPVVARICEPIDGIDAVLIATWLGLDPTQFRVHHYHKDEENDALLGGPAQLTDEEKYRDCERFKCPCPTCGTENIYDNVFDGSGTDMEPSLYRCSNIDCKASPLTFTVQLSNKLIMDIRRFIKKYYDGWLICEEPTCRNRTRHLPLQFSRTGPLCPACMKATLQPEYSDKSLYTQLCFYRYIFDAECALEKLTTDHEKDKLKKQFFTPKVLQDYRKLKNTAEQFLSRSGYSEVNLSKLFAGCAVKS
UniProt Q99575: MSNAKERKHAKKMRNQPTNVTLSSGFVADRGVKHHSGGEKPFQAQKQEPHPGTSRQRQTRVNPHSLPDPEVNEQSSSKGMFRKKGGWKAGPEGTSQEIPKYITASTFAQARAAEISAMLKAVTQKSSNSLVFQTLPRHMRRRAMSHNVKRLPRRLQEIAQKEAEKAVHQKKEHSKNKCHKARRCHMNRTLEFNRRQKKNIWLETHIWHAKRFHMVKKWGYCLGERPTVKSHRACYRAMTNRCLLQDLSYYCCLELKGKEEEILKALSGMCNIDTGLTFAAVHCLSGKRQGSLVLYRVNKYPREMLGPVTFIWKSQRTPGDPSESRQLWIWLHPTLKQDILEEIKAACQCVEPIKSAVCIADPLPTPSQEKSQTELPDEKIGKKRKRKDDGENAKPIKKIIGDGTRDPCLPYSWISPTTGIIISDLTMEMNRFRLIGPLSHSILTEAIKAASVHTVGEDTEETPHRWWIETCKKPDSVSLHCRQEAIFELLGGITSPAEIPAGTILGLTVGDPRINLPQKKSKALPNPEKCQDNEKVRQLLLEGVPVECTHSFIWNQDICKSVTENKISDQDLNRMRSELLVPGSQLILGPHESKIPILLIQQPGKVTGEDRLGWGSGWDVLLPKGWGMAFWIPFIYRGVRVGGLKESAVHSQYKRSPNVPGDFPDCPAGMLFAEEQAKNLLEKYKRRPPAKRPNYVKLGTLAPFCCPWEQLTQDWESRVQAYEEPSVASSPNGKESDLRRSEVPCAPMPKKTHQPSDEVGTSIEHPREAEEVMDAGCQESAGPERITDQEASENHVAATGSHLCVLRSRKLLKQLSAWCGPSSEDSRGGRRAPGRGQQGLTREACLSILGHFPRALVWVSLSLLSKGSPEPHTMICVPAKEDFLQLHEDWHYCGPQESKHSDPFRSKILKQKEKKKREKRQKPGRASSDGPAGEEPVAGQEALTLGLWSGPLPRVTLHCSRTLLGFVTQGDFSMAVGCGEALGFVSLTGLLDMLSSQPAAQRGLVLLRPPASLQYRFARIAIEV
UniProt Q9H2H8: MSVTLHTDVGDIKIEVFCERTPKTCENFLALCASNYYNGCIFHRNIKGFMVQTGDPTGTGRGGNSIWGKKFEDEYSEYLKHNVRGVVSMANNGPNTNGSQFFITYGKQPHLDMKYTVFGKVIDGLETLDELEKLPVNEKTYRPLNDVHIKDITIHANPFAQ
UniProt Q15181: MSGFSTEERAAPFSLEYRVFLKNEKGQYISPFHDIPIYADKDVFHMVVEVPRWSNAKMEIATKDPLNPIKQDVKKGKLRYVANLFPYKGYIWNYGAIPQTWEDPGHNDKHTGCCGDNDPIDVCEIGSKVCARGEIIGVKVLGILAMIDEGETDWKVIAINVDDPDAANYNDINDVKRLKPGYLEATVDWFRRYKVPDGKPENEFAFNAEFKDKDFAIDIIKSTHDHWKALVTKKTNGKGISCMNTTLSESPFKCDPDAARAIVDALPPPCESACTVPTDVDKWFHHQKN
UniProt O95602, whole entry, looked up: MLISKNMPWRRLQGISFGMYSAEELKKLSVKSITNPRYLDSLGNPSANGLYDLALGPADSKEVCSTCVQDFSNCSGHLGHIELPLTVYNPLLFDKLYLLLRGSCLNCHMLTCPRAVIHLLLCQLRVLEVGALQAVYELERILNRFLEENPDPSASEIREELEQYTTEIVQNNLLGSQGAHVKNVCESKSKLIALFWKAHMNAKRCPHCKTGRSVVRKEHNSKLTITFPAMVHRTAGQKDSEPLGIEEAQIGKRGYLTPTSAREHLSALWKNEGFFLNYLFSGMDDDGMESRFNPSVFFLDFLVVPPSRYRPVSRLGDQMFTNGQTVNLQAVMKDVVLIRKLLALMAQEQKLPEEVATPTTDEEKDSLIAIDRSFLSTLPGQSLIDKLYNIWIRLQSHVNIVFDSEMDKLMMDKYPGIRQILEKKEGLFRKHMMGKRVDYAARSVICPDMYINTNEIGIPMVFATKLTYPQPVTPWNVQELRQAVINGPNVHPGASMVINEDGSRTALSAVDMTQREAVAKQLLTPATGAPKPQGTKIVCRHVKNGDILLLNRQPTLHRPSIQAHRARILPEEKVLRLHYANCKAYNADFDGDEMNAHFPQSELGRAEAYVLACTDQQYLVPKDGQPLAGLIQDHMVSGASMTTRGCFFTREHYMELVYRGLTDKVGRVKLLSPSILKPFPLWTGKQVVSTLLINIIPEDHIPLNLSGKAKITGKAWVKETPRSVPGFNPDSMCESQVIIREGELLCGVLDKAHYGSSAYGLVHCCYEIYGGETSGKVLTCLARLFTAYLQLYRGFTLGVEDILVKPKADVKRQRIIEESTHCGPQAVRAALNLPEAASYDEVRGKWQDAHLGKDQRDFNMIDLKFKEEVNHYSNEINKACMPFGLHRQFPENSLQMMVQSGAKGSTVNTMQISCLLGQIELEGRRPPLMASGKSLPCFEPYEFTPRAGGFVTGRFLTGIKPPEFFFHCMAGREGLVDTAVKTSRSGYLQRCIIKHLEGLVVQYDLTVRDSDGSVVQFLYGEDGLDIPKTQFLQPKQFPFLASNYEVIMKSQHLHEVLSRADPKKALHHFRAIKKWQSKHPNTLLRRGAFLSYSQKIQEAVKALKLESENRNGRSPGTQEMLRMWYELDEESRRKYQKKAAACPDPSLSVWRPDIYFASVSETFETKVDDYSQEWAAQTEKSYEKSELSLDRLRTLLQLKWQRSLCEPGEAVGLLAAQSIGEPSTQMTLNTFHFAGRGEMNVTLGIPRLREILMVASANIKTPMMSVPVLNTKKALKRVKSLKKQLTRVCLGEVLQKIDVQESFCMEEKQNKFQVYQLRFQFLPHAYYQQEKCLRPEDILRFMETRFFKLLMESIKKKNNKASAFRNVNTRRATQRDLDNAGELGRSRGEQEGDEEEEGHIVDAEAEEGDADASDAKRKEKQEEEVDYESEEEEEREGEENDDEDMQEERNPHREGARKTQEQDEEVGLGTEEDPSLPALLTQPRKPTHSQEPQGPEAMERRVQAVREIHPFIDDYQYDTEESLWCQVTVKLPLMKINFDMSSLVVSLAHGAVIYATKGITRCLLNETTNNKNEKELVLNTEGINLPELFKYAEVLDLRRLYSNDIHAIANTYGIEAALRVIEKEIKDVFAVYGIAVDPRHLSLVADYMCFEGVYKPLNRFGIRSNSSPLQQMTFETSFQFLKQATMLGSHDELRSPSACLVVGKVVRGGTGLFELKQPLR

Compound: Cc1cc(ccc1-c1ccccc1)C(=O)N1CCCN(CC1)C(=O)CCl [compound 10]
Assay: probe-labelled cysteine peptide fold change vs DMSO (competition) (log2 fold change); higher = less target engagement (more negative = stronger competition)
Conditions: THP-1, incubation time: 4 h
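Also: competitive profiling in live THP-1 cells: cysteine peptides tagged with an iodoacetamide desthiobiotin (IA-DTB) probe, intensity after compound treatment relative to DMSO-treated cells.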

Target | probe-labelled cysteine peptide fold change (10 µM) | probe-labelled cysteine peptide fold change (50 µM)
POLR1C_O15160_214_PVHDDILIAQLRPGQEIDLLMHCVK (UniProt O15160) | -0.0314 | -0.119
POLD1_P28340_360_LALTLRPCAPILGAK (UniProt P28340) | -0.0973 | -0.273
POLR2M_P0CAP2_65_AAIAECEEVRR (UniProt P0CAP2) | 0.275 | 0.232
POLA1_P09884_686_NATCGR (UniProt P09884) | 0.129 | -0.083
POGK_Q9P215_369_AHDYEVAQMGNADETPICLEVPSR (UniProt Q9P215) | -0.299 | -0.0722
POLD1_P28340_319_VLSFDIECAGR (UniProt P28340) | -0.0702 | -0.202
PPA2_Q9H2U2_302_CTQEEAR (UniProt Q9H2U2) | -0.0316 | 0.0564
POLR2B_P30876_224_SCLENSSRPTSTIWVSMLAR (UniProt P30876) | -0.039 | -0.0122
POP1_Q99575_845_EACLSILGHFPR (UniProt Q99575) | -0.151 | 0.306
POSTN_Q15063_44_GRDQGPNVCALQQILGTK (UniProt Q15063) | -0.519 | -0.555
POLD1_P28340_837_RDNCPLVANLVTASLR (UniProt P28340) | -0.0973 | -0.238
POLR1C_O15160_256_CFSPGVIEVQEVQGK (UniProt O15160) | -0.187 | 0.0602
POT1_Q9NUX5_329_CQQLSATILTDHQYLER (UniProt Q9NUX5) | 0.149 | -0.0324
POLD1_P28340_837_RDNCPLVANLVTASLRR (UniProt P28340) | -0.269 | -0.453
POTEJ_P0CG39_880_LCYVALDFEQEMAMVASSSSLEK (UniProt P0CG39) | 0.403 | 0.222
POLR2K_P53803_22_QQPMIYICGECHTENEIK (UniProt P53803) | -0.0834 | -0.286
POLR3B_Q9NW08_272_AMGVESDQEIVQMIGTEEHVMAAFGPSLEECQK (UniProt Q9NW08) | 0.303 | 0.0384
POLD1_P28340_1061+1071_CQGSLHEDVICTSR (UniProt P28340) | 0.138 | -0.343
POLR1D_P0DPB6_39_HCVTFVLHEEDHTLGNSLR (UniProt P0DPB6) | 0.329 | -0.0119
PPIH_O43447_174_LPVVISQCGEM (UniProt O43447) | -0.325 | -0.0882
POP1_Q99575_242_CLLQDLSYYCCLELK (UniProt Q99575) | 0.0894 | 0.0383

Pulled one by one from above (2):
Target | probe-labelled cysteine peptide fold change (10 µM) | probe-labelled cysteine peptide fold change (50 µM)
POLD1_P28340_1061+1071_CQGSLHEDVICTSR (UniProt P28340) | 0.138 | -0.343
POLR2B_P30876_224_SCLENSSRPTSTIWVSMLAR (UniProt P30876) | -0.039 | -0.0122

(continued)

Target | probe-labelled cysteine peptide fold change (10 µM) | probe-labelled cysteine peptide fold change (50 µM)
POP1_Q99575_876_GSPEPHTMICVPAK (UniProt Q99575) | -0.284 | 0.301
POLR2L_P62875_10_CFTCGK (UniProt P62875) | -0.0403 | -0.098
POLD2_P49005_438_IIRGPEDQTVLLVTVPDFSATQTACLVNLR (UniProt P49005) | 0.14 | -0.0872
PPIL3_Q9H2H8_25_TCENFLALCASNYYNGCIFHR (UniProt Q9H2H8) | -0.416 | -0.172
POGZ_Q7Z3K3_398_GHMCYCCPEMVEYQK (UniProt Q7Z3K3) | -0.15 | 0.138
POLDIP3_Q9BY77_338_CLDGQPMK (UniProt Q9BY77) | -0.0475 | -0.204
PPFIBP1_Q86W92_140_IRDLEFCLEEHR (UniProt Q86W92) | -0.0297 | 0.0847
POU2F2_P09086_187_CLEPPSHPEEPSDLEELEQFAR (UniProt P09086) | -0.342 | -0.433
POLR3E_Q9NVU0_553_AAGTDSFNGHPPQGCASTPVAR (UniProt Q9NVU0) | -0.173 | -0.388
POFUT2_Q9Y2G5_375_DGGVAIIDQWICAHAR (UniProt Q9Y2G5) | -0.205 | -0.0306
PPA1_Q15181_254_CDPDAAR (UniProt Q15181) | -0.296 | -0.072
POLD1_P28340_873_LLIDRDPEGAVAHAQDVISDLLCNR (UniProt P28340) | 0.104 | -0.0328
POLR2I_P36954_86_TEDHPCQK (UniProt P36954) | -0.0596 | -0.379
POP1_Q99575_283_ALSGMCNIDTGLTFAAVHCLSGK (UniProt Q99575) | -0.125 | -0.377
POU2F1_P14859-2_4_MLDCSDYVLDSR (UniProt P14859) | -0.0541 | -0.281
POLR1A_O95602_746_EGELLCGVLDK (UniProt O95602) | -0.0729 | 0.0869
PPIC_P45877_191_VIDGMTVVHSIELQATDGHDRPLTNCSIINSGK (UniProt P45877) | 0.132 | -0.169
PPA1_Q15181_113+114+123_HTGCCGDNDPIDVCEIGSK (UniProt Q15181) | -0.667 | -0.756
POLR1A_O95602_446_SVICPDMYINTNEIGIPMVFATK (UniProt O95602) | -0.0365 | 0.128
POLR2B_P30876_357_EMLPHVGVSDFCETK (UniProt P30876) | -0.314 | -0.0479
POLD1_P28340_338_GIFPEPERDPVIQICSLGLR (UniProt P28340) | 0.127 | -0.0464
